In article PMC3663554:

Target: T1, signal peptide peptidase (SPP) (human (endogenous in HEK293)) (UniProt Q8TCT9)
T1 sequence: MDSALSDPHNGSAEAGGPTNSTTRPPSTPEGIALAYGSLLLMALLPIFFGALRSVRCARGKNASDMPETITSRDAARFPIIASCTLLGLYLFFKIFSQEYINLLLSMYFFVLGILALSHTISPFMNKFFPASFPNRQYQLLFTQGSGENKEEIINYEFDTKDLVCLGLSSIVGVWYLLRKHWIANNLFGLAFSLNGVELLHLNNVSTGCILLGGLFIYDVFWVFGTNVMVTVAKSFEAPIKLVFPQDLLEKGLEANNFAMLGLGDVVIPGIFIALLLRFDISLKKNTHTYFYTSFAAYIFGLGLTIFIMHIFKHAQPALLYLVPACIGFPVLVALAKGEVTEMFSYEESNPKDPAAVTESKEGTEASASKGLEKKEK
Experiment: co-IP; naive HEK293 cells, lysis in 1% CHAPSO, diluted to 0.5% CHAPSO; immunoprecipitation with rabbit polyclonal SPP antibody and Protein G-Sepharose, 4 °C; Western blot; control: nonspecific immunoglobulin

Q: For “endogenous presenilin 2, endoproteolytically processed N-terminal fragment (human (endogenous in HEK293)) (domain or fragment)”, which binding is on record?
A: binds

Results are given in words; binding and its absence hold for the method and conditions named. In cells and extracts the contact can be indirect. Binding calls can cover weak binding; strength is not graded here.
